According to PubChem BioAssay AID504444 (National Center for Advancing Translational Sciences (NCATS), 2011):
Out of some 360,000 compounds screened, about 7,500 (2.1%) were called active. The shares of active, inactive and inconclusive entries below differ from those in the screen. Calls come from the whole dose curve; as a rule, active = well fitted inhibition curve with a large enough effect; inconclusive = small, poorly fitted or top-dose-only effect, or effect the other way; inactive = flat fitted curve, though single readings scatter. Potencies beside an inconclusive call are fits to weak or partial responses and may not hold up.

test: Nrf2 qHTS screen for inhibitors; conditions: A549 ARE-Fluc reporter, luciferase luminescence, 18-24 h; activity change, negative = inhibition: at 46 µM (top of the series); note: nearly all actives have a fitted effect of over 60% in size
How it was run: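 In this cell-based qHTS, ARE-driven firefly luciferase in A549 cells reports Nrf2 activity; the luminescent signal after BugLite lysis is the measured value, with a prior CellTiter-Fluor read for cell health.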
% is set by controls: 0 for no effect and ±100 for the full control effect; potency is the fitted concentration of half-maximal effect.

| Compound | Potency | activity change, negative = inhibition |
| --- | --- | --- |
| CC(=O)N1CCc2cc(S(=O)(=O)NC(Cc3ccccc3)C(=O)Nc3cc(C)ccn3)ccc21 (stereo not given) | inconclusive: 20.6 µM [falling, single point] | – |
| CCOC(=O)C1(Cc2ccccc2C(F)(F)F)CCN(C2CCN(C(C)=O)CC2)CC1 | – | inactive: 10.2% |
| COc1ccc(C2=NS(=O)(=O)N(C)C(C(=O)NC3CCCC3)=C2)cc1 | inconclusive: 20.6 µM [falling, partial curve, poor fit] | – |
| CN1CCN(c2ccc(-c3cccc(NC(=O)COc4ccc(Cl)cc4Cl)c3)nn2)CC1 | inconclusive: 18.4 µM [activator, partial curve] | – |
| COc1cc(CNc2cccc(C(=O)O)c2)cc(Br)c1OCC(=O)NC(C)(C)C | – | inactive: 0.189% |
| CCOc1ccc(CNS(=O)(=O)c2c(C)nc3scc(C)n3c2=O)cc1OC | inconclusive: 29.1 µM [falling, single point] | – |
| CN(CC(=O)NCCc1ccccc1)S(=O)(=O)c1cccc2nsnc12 | – | inactive: -3.19% |
| CCc1ccc(-c2cc(C)no2)cc1S(=O)(=O)NCCc1ccccc1 | inconclusive: 29.1 µM [falling, single point] | – |
| O=C(COC(=O)c1ccc(Cl)nc1)Nc1cccc(S(=O)(=O)N2CCCCC2)c1 | – | inactive: 6.56% |
| N#Cc1ccc(C23CC4(C2)[C@H](CN(P(=O)(c2ccccc2)c2ccccc2)[C@@H]4c2ccccc2)C3c2ccc(Cl)nc2)cc1 (stereo not given in full) | inconclusive: 25.9 µM [falling, single point] | – |
| COC(=O)c1cc(=O)n(CCc2ccc(OC)c(OC)c2)c(=Nc2ccc(F)c(Cl)c2)s1 | active: 23.1 µM | – |
| O=c1cc(COc2cccc(C(F)(F)F)c2)nc2sc3c(n12)CCCC3 | inconclusive: 2.31 µM [falling, partial curve, poor fit] | – |
| Cc1cc2oc(C(=O)NCc3ccc(S(N)(=O)=O)cc3)c(C)c2cc1C | inconclusive: 23.1 µM [activator, partial curve, poor fit] | – |
| Cc1cccc(-c2nc(-c3ccncc3)no2)c1 | inconclusive: 8.2 µM [activator, partial curve] | – |
| COc1ccc(Cl)cc1NC(=O)CN1CCC(n2nnc3cc(C)ccc32)CC1 | inconclusive: 16.4 µM [falling, single point] | – |
| CC(C)Cc1nc2oc3c(Cl)ncnc3c2c2c1CCC2 | – | inactive: 2.44% |
| Cc1ccc(C(=O)NC(Cc2cccc(C(F)(F)F)c2)C(=O)O)cc1 (stereo not given) | – | inactive: -7.93% |
| COc1ccccc1/C=C/c1nc(C#N)c(NC(C)c2ccccc2)o1 (stereo not given) | inconclusive: 20.6 µM [falling, single point] | – |
| Cc1cc(NC(=O)c2ccc(Br)c(S(=O)(=O)N3CCCC3)c2)no1 | inconclusive: 29.1 µM [falling, single point] | – |
| Cc1c(Cl)cccc1NC(=O)CN1C(=O)CSc2ccc(S(=O)(=O)N3CCCC3)cc21 | inconclusive: 29.1 µM [falling, single point] | – |
| COc1ccc(-c2nnn(CCc3nn[nH]n3)n2)cc1OC | inconclusive: 0.82 µM [falling, partial curve, poor fit] | – |
| Cc1ccc(C(=O)NC2CCN(Cc3ccccc3)CC2)cc1S(=O)(=O)N1CCOCC1 | inconclusive: 9.2 µM [falling, partial curve, poor fit] | – |

Among those listed so far, these have a cyano group.

| Compound | Potency | activity change, negative = inhibition |
| --- | --- | --- |
| N#Cc1ccc(C23CC4(C2)[C@H](CN(P(=O)(c2ccccc2)c2ccccc2)[C@@H]4c2ccccc2)C3c2ccc(Cl)nc2)cc1 (stereo not given in full) | inconclusive: 25.9 µM [falling, single point] | – |
| COc1ccccc1/C=C/c1nc(C#N)c(NC(C)c2ccccc2)o1 (stereo not given) | inconclusive: 20.6 µM [falling, single point] | – |

Following part.

| Compound | Potency | activity change, negative = inhibition |
| --- | --- | --- |
| COc1cc(F)c(S(=O)(=O)N2CCCN(S(=O)(=O)c3ccc4c(c3)OCCO4)CC2)c(F)c1 | inconclusive: 20.6 µM [falling, single point] | – |
| COC(=O)Cc1c(OC)ccn(CCc2c[nH]c3ccccc23)c1=O | inconclusive: 10.3 µM [activator, partial curve, poor fit] | – |
| O=C(NC1CCCc2ccccc21)c1ccc(S(=O)(=O)N2CCOCC2)cc1 (stereo not given) | – | inactive: -8.21% |
| O=C(CCN1C(=O)/C(=C\c2cccs2)SC1=S)Nc1ccc(C(=O)O)cc1 | inconclusive: 32.6 µM [falling, single point] | – |
| CCOc1cc(/C=C2/C(=N)N3C(=NC2=O)SN=C3S(C)(=O)=O)ccc1OC(=O)c1ccco1 | inconclusive: 13 µM [activator, partial curve] | – |
| C=CCN=Cc1c(C)[nH]n(-c2ccccc2)c1=O | inconclusive: 20.6 µM [activator, partial curve] | – |
| CC(=O)Nc1ccc(S(=O)(=O)n2nc(-c3ccc(C)cc3)nc2N)cc1 | inconclusive: 1.84 µM [falling, partial curve, poor fit] | – |
| Cc1nc(CN(C)c2ncnc3ccc(-c4ccc5c(c4)OCO5)cc23)cs1 | inconclusive: 29.1 µM [falling, single point] | – |
| COC(=O)/C(=C1/Oc2ccc(C(C)(C)C)cc2S1)C(F)(F)F | inconclusive: 2.59 µM [activator, partial curve, poor fit] | – |
| CC1=NN(c2ccccc2)C(=O)/C1=C/C=C/c1ccc(N(C)C)cc1 | inconclusive: 0.146 µM [activator, full curve, poor fit] | – |
| Cc1ccc(OCCCN2CCOCC2)cc1 | inconclusive: 18.4 µM [activator, single point] | – |
| CN(C)C(=O)c1nc(C#N)c(N(C)C)o1 | inconclusive: 0.291 µM [falling, partial curve, poor fit] | – |
| CCOC(=O)N1CCC(NC(=O)c2cnn(-c3cccc(C)c3)c2C2CCN(C(=O)OC(C)(C)C)CC2)CC1 | – | inactive: 11.3% |
| O=C(N/N=C/c1cccs1)c1cc(-c2cccc3ccccc23)n[nH]1 | inconclusive: 9.2 µM [activator, partial curve] | – |
| O=C(COc1cccnc1[N+](=O)[O-])Nc1c(Cl)cccc1Cl | – | inactive: -28.9% |
| O=C(Cn1cnc2c(oc3ccccc32)c1=O)N1CCCc2ccccc21 | inconclusive: 2.59 µM [activator, partial curve, poor fit] | – |
| CC(/C=C/c1ccc2c(c1)OCO2)=N\NC(=O)c1ccccc1 | inconclusive: 16.4 µM [activator, partial curve] | – |
| NC(=O)[C@H]1CC2(CC(c3cccc(NC(=O)CC(c4ccccc4)c4ccccc4)c3)=NO2)CN1C(=O)CC(c1ccccc1)c1ccccc1 (stereo not given in full) | inconclusive: 32.6 µM [falling, single point] | – |
| Cc1ccccc1C(=O)O/N=C(\N)c1ccc([N+](=O)[O-])cc1 | inconclusive: 23.1 µM [activator, single point] | – |
| COc1ccc(C)cc1NC(=O)c1ccccc1NS(=O)(=O)c1ccc(Cl)s1 | inconclusive: 20.6 µM [falling, single point] | – |
| CC(C)Oc1ccc(S(=O)(=O)N2CCOCC2)cc1NC(=O)C1=NN(c2ccccc2)C(=O)CC1 | – | inactive: -22.5% |
| Cc1ccc(C(=O)N/N=C/c2ccoc2)cc1C | inconclusive: 0.92 µM [activator, full curve, poor fit] | – |

| Compound | Potency | activity change, negative = inhibition |
| --- | --- | --- |
| O=C(NC(=S)Nc1ccc(F)c([N+](=O)[O-])c1)c1ccccc1F | inconclusive: 5.8 µM [falling, full curve, poor fit] | – |
| c1ccc2c(-c3c[nH]c4ccccc34)c3ccccc3nc2c1 | inconclusive: 18.4 µM [falling, single point] | – |
| CCOC(=O)N1CCC(N(CCOC)C(=O)Nc2ccc(Cl)c(Cl)c2)CC1 | inconclusive: 29.1 µM [falling, single point] | – |
| O=c1nc2c(-c3ccccc3F)n[nH]n2c2ccccc12 | inconclusive: 7.31 µM [activator, partial curve, poor fit] | – |
| CC(NC(=O)CN1CCN(Cc2cccc(F)c2)CC1)c1ccccc1 (stereo not given) | – | inactive: 4.36% |
| NC(=O)c1ccsc1NC(=O)CSc1nc2ccccc2c(=O)n1CCCO | inconclusive: 20.6 µM [falling, single point] | – |
| CC(=O)NCCC(=O)Nc1nc2c(ccc3ccccc32)s1 | inconclusive: 14.6 µM [activator, partial curve, poor fit] | – |
| CCOc1ccc(/C=C2/Sc3ccc(C(=O)NCC4CCCO4)cc3N(C)C2=O)cc1OC (stereo not given) | inconclusive: 29.1 µM [falling, single point] | – |
| CC(=O)Nc1ccc2nc(SCc3ccccc3)sc2c1 | inconclusive: 0.58 µM [activator, full curve, poor fit] | – |
| O=C(/C=N/O)Nc1ccc2sc3ccccc3c2c1 | inconclusive: 20.6 µM [activator, partial curve, poor fit] | – |
| CCOC(=O)c1nn(-c2ccc3c(c2)OCO3)cc1O | inconclusive: 29.1 µM [activator, single point] | – |
| CCOc1ccccc1CN(CCc1ccc2c(c1)OCO2)Cc1cc(OC)c(OC)cc1OC | – | inactive: 9.8% |
| COc1cc(CNc2ccc(N3CCOCC3)cc2)cc(Br)c1OC | – | inactive: 0% |
| COCCC(=O)N1CCC(Oc2ccc(C(=O)NCc3cccc(C)n3)cc2)CC1 | inconclusive: 20.6 µM [falling, single point] | – |
| NC(N)=N/N=C/c1ccc(OCc2ccccc2Cl)cc1 | – | inactive: 4.68% |
| Cc1ccn2c(C(=O)N/N=C\c3ccccc3[N+](=O)[O-])c(C)nc2c1 | inconclusive: 32.6 µM [falling, partial curve, poor fit] | – |
| CCCCOc1ccc(C(=O)NC(=S)Nc2ccc(CN3CCOCC3)cc2)cc1 | – | inactive: -25.3% |
| CCOC(=O)c1ccc(N2C(=O)c3n[nH]c(C)c3C2c2ccc(C(C)C)cc2)cc1 (stereo not given) | – | inactive: 9.12% |
| CCCC(=O)NC(c1ccc(N(C)C)cc1)c1c(O)ccc2ccccc12 (stereo not given) | – | inactive: -6.17% |
| COC(=O)c1ccccc1OCCOCCOc1cccc2ccc(C)nc12 | – | inactive: 4.42% |
| CCOC(=O)C1CCN(C(=O)c2cc3c(s2)-c2ccccc2OC3)CC1 | inconclusive: 9.2 µM [activator, partial curve] | – |
